For three molecules, binding results are on record in publication PMC10983951.

The chains are these.
B1: GAP45 (protein, UniProt Q7Z289 1-245)
chain: MGNACKKNTAKTPTRKEAEDLAEKERQEREAKEKAEAEEKARAEAEKNAADKAEAERRAAEAREREESARKEAEAEAARKAEAEAAEAERLRKEAEKKKAEEAKRKAEEEQRAAAEEAEQRAREEAERRKAEAAAAAERERQMQEALKQEEMSPREKYDKLASPEDSASETTMATQPQKVAEHSSAAVTDRSVVGYTVTPCDMAAIDETAKYLSKRCGCDLGDQHDENECPICRHIDLSDAPLLN
B2: SPM1 (protein, UniProt S8F1Y1 1-351)
chain: MSGGNSNTPKKLPSEEGSDYGYPQKPQKYLPKSEQAEPDYSACCKGNDAYKGASHGTVQFSHPEEAQKYAGAAAGAETIQRGRERVAADRQPRAAGDVPARRLHLSDVDEAHRGQSPSRHPGYCVEELCTCGMHKCIPSRAPVPFTGSTQYRQEFVPKPLPPPTQVSQVTLPPSLPFEAESSYRTEFVAKPLPPPAKFSEVKLPPTLPFHGESAYRTDYVPKPLPEVAKPVEVKLPPTLPFNAQSCYRSEYVAKPLPPPVQTVEVKLPPSLPFEGSTHYRDEFQVKPLPPATKVTEVKLPPSLPFDATSMYRSDYVAKSNPICPVSKLPQYPAATYPQNHVFWDPDTKQWY
B3: SPM2 (protein, UniProt S8GR18 1-357)
chain: MALPLDAWATAAHGSKAYVARSADVSRGACFSPAGVTRVSHQGIEPARPAGVSSRRLTQLRLAMSQQPEDRAHAPRGPTAYSCTALRDNVNEILRSATIPRDTDPVAAVLDRKRVDDYAGMRSDGINELRTPSHRWSAEVGKKRGLMTKNESVFVSDVLEHHGRPIDDSPEFQHPRVAAYLQQQCKPKCRSLQRHYGPDELHKAFYTKFEVVDKTTGRTEIMTARRPGSAAAIISLCNFDAYSTRSHKATSAQKQVSNIESTPLGLVPRKGAELPHKPSFTQTAASVCMKRSQLRCQDSWLTPSSDAPTIRHLGQSRRHVALPWLHRPTNRILQHLPQPRVQSRLVCQVDHAKKSPL

No constants are given. Whether binding was seen depends on the method and setting. In cells and extracts the contact can be indirect. A yes stands for co-enrichment or nearness to the bait. Other partners may have been found.

In the assay the target is FLAG-Myosin-A WT (complement) (Toxoplasma gondii) (UniProt O00934). The assay can be described thus: proximity labelling; Biotinylation by Antibody Recognition (BAR): fixed, permeabilized FLAG-MyoA parasites, primary antibody and HRP-conjugated secondary antibody, biotin-phenol and hydrogen peroxide; streptavidin beads, mass spectrometry; parental strain as control.
Regarding B1, the binding entry is on record as “binds”.
With B2, the binding result is “binds”.
Consider B3, for which the binding result is listed as “binds”.
